Counter-ions that a name gives are not always drawn. This is one part of the list. Many values rest on one well or one pass, so single values are uncertain.
What was measured:
Assay in all cases: reduction in cell viability relative to untreated/vehicle; higher = more growth inhibition
Conditions in all cases: 200 nM; 72 h
M229P = system: M229P (parental melanoma line)
M229R = system: M229R (matched melanoma line resistant to BRAF inhibitors)
M238P = system: M238P (parental melanoma line)
M238R = system: M238R (matched melanoma line resistant to BRAF inhibitors)
M249P = system: M249P (parental melanoma line)
M249R = system: M249R (matched melanoma line resistant to BRAF inhibitors)
UACC62P = system: UACC62P (parental melanoma line)
UACC62R = system: UACC62R (matched melanoma line resistant to BRAF inhibitors)

Measured: reduction in cell viability

C[C@H](c1ccc(F)cc1CCCC(=O)O)N(c1cc(F)ccc1F)S(=O)(=O)c1ccc(Cl)cc1
< 0%: M229P | M229R | M238P | M238R | M249P | M249R | UACC62P | UACC62R

CC1COc2c(N3CCN(C)CC3)c(F)cc3c(=O)c(C(=O)O)cn1c23 (centres undefined) [Ofloxacin]
< 0%: M229P | M229R | M238P | M238R | M249P | M249R | UACC62P | UACC62R

COc1ccc(F)c(F)c1C(=O)c1cnc(NC2CCN(S(C)(=O)=O)CC2)nc1N
< 0%: M229P | M229R | M238R | M249P | UACC62P
5.79%: M238P
4.18%: M249R
25.8%: UACC62R

CN(C)c1ccc(O)c2c1C[C@H]1C[C@H]3[C@H](N(C)C)C(O)=C(C(N)=O)C(=O)[C@@]3(O)C(O)=C1C2=O [Minocycline]
22.3%: UACC62P
< 0%: M229P | M229R | M238P | M238R | M249R | UACC62R
2.67%: M249P

CCCCOCCOc1nc(-c2ccc(C(=O)O)c(F)c2)sc1C
< 0%: M229P | M229R | M238P | M238R | M249P | M249R | UACC62P | UACC62R

C[C@H](CCC(=O)O)[C@H]1CC[C@H]2[C@@H]3[C@H](O)C[C@@H]4C[C@H](O)CC[C@]4(C)[C@H]3CC[C@]12C [Chenodeoxycholic acid]
< 0%: M229P | M238P | M238R | M249P | M249R | UACC62P | UACC62R
2.43%: M229R

Cc1cccc(Nc2nc(N[C@@H]3CCCC[C@@H]3N)ncc2C(N)=O)c1
< 0%: M229P | M229R | M238P | M238R | M249P | M249R | UACC62P | UACC62R

Cc1nc(-c2ccc(OCC(C)C)c(C#N)c2)sc1C(=O)O [Febuxostat]
< 0%: M229P | M229R | M238P | M238R | M249R | UACC62P | UACC62R
9.04%: M249P

CN1C(C(=O)Nc2ccccn2)=C(O)c2sc(Cl)cc2S1(=O)=O [Lornoxicam]
< 0%: M229P | M229R | M238P | M238R | M249P | M249R | UACC62P | UACC62R

CCc1cc2c(cc1N1CCC(N3CCOCC3)CC1)C(C)(C)c1[nH]c3cc(C#N)ccc3c1C2=O
27.1%: UACC62R
2.61%: M249P
5.85%: M238R
3.15%: UACC62P
< 0%: M229P | M229R | M238P | M249R

CCN1CCC(n2cc(CNc3cc(Cl)c4ncc(C#N)c(Nc5ccc(F)c(Cl)c5)c4c3)nn2)CC1 [Wyeth Cot inhibitor-2]
< 0%: M229P | M229R | M238P | M238R | M249P | M249R | UACC62P | UACC62R

O=C(Nc1ccccc1-c1cn2c(CN3CCNCC3)csc2n1)c1cnc2ccccc2n1
< 0%: M229P | M229R | M238P | M238R | M249P | M249R | UACC62R
2.81%: UACC62P

OCCCNc1cc(-c2ccnc(Nc3cccc(Cl)c3)n2)ccn1
71.4%: M229R
97.1%: M238P
98%: M249R
94.6%: M249P
89.3%: UACC62R
79%: M238R
85.4%: UACC62P
75.3%: M229P

O=C(C1CCCCC1)N1CC(=O)N2CCc3ccccc3C2C1 (centres undefined) [Praziquantel]
0.24%: UACC62P
< 0%: M229P | M229R | M238P | M238R | M249P | M249R | UACC62R

NC(=O)Nc1cc(-c2cccc(F)c2)sc1C(=O)N[C@H]1CCCNC1
87.2%: M229R
44.2%: M238R
36.9%: UACC62P
76%: UACC62R
42.5%: M249R
69.1%: M238P
45.7%: M229P
23%: M249P

3 entries from above, sorted by molecular weight, ascending.
Cc1cccc(Nc2nc(N[C@@H]3CCCC[C@@H]3N)ncc2C(N)=O)c1
< 0%: M229P | M229R | M238P | M238R | M249P | M249R | UACC62P | UACC62R

OCCCNc1cc(-c2ccnc(Nc3cccc(Cl)c3)n2)ccn1
71.4%: M229R
97.1%: M238P
98%: M249R
94.6%: M249P
89.3%: UACC62R
79%: M238R
85.4%: UACC62P
75.3%: M229P

C[C@H](CCC(=O)O)[C@H]1CC[C@H]2[C@@H]3[C@H](O)C[C@@H]4C[C@H](O)CC[C@]4(C)[C@H]3CC[C@]12C [Chenodeoxycholic acid]
< 0%: M229P | M238P | M238R | M249P | M249R | UACC62P | UACC62R
2.43%: M229R

Additional records follow.

CNC(=O)c1cc(Oc2ccc(NC(=O)Nc3ccc(Cl)c(C(F)(F)F)c3)cc2)ccn1 [Sorafenib]
< 0%: M229P | M229R | M238P | M238R | M249P | M249R | UACC62P | UACC62R

COc1cccc(-c2cc(=O)c3ccccc3o2)c1N
2.06%: UACC62P
< 0%: M229P | M229R | M238P | M238R | M249P | M249R | UACC62R

COc1cc2c(Oc3ccc4[nH]c(C)cc4c3F)ncnc2cc1OCCCN1CCCC1 [Cediranib]
< 0%: M229P | M229R | M238P | M238R | M249P | UACC62P | UACC62R
7.13%: M249R

O=C(O)[C@H](CC(=O)N1C[C@H]2CCCC[C@H]2C1)Cc1ccccc1 [Mitiglinide calcium hydrate]
< 0%: M229P | M229R | M238P | M238R | M249P | M249R | UACC62P | UACC62R

CC(=O)Nc1ccc([C@H](C)C(=O)Nc2ncc(C(C)C)s2)cc1
3.43%: M249R
< 0%: M229P | M229R | M238P | M238R | M249P | UACC62P | UACC62R

O=c1c2ccccc2nc2n1CCc1c-2[nH]c2ccccc12 [Rutaecarpine]
< 0%: M229P | M229R | M238P | M238R | M249P | UACC62P | UACC62R
2.83%: M249R

COc1cc(C(C)=O)ccc1OCCCN1CCC(c2noc3cc(F)ccc23)CC1 [Iloperidone]
< 0%: M229P | M229R | M238P | M238R | M249P | M249R | UACC62P | UACC62R

CN(C)CCc1c[nH]c2ccc(Cn3cncn3)cc12 [Rizatriptan benzoate]
< 0%: M229P | M229R | M238P | M238R | M249R | UACC62P | UACC62R
0.43%: M249P

N#Cc1cc(NC(=O)Nc2nnc(-c3ccncc3)s2)ccc1-c1cn[nH]c1
< 0%: M229P | M229R | M238P | M238R | M249P | M249R | UACC62P | UACC62R

CN1CCN(CCOc2cc(OC3CCOCC3)c3c(Nc4c(Cl)ccc5c4OCO5)ncnc3c2)CC1 [Saracatinib]
6.72%: M229R
1.23%: UACC62R
< 0%: M229P | M238P | M238R | M249P | M249R | UACC62P

Oc1ccc(C2=Cc3ccc(O)cc3OC2)cc1 [Idronoxil]
< 0%: M229P | M229R | M238P | M238R | M249P | UACC62R
2.11%: M249R
7.15%: UACC62P

c1ccc2c(-c3cnn4cc(-c5ccc(N6CCNCC6)cc5)cnc34)ccnc2c1
< 0%: M229P | M229R | M238P | M238R | M249P | M249R | UACC62P | UACC62R

N#Cc1ccc(COC[C@H]2O[C@@H](n3c(NCc4ccc(Cl)c(Cl)c4)nc4c(N)ncnc43)[C@H](O)[C@@H]2O)cc1
< 0%: M229P | M229R | M238P | M238R | M249P | M249R | UACC62P | UACC62R

O=C1c2cccc(O)c2C(=O)c2c(O)cc(CO)cc21 [Aloe-emodin]
2.32%: UACC62P
2.45%: M229R
< 0%: M229P | M238P | M238R | M249P | M249R | UACC62R

CC(C)c1cc(-c2n[nH]c(=O)n2-c2ccc3c(ccn3C)c2)c(O)cc1O [Ganetespib (STA-9090)]
62.9%: M229R
47.5%: UACC62R
8.73%: M249P
48.3%: M238R
50%: M238P
54.5%: UACC62P
25.7%: M249R
55.5%: M229P

Cc1nn(Cc2ccccc2Cl)c(C)c1CN(C)CC(O)COc1ccc(Cl)cc1 (centres undefined)
7.91%: UACC62P
< 0%: M229P | M229R | M238P | M238R | M249P | M249R | UACC62R

CC1=NN(c2ccccc2)C(=O)C1 [Edaravone]
< 0%: M229P | M229R | M238P | M238R | M249R
2.84%: UACC62R
4.39%: M249P
17.7%: UACC62P

OCCn1cc(-c2cnc3nnn(Cc4ccc5ncccc5c4)c3n2)cn1
< 0%: M229P | M229R | M238P | M238R | M249P | M249R | UACC62R
1.54%: UACC62P

COC(=O)[C@H](Cc1ccccc1)NC(=O)[C@@H](N)CC(=O)O [Aspartame]
< 0%: M229P | M229R | M238P | M238R | M249P | M249R | UACC62P | UACC62R

CN[C@@H]1[C@@H](O)[C@@H](O[C@@H]2[C@@H](O)[C@H](O[C@H]3O[C@H](CN)[C@@H](O)[C@H](O)[C@H]3O)[C@@H](N)C[C@H]2NC(=O)[C@@H](O)CN)OC[C@]1(C)O [Isepamicin]
< 0%: M229P | M229R | M238P | M238R | M249P | M249R | UACC62P | UACC62R

CC(C)[C@H](NS(=O)(=O)c1ccc(-c2ccc(Br)cc2)cc1)C(=O)O
< 0%: M229P | M229R | M238P | M238R | M249P | M249R | UACC62P | UACC62R

CS(=O)(=O)Nc1ccc([N+](=O)[O-])cc1Oc1ccccc1 [Nimesulide]
< 0%: M229P | M229R | M238P | M238R | M249P | M249R | UACC62P | UACC62R

CC(C)(Cc1ccc2ccccc2c1)NC[C@@H](O)COc1cccc(Cl)c1C#N
< 0%: M229P | M229R | M238P | M238R | M249P | M249R | UACC62P | UACC62R

CCC[C@H](Nc1nc(-c2ccc(NC(=O)NCC)c(OC)c2)ncc1C)c1cccnc1 [Lexibulin hydrochloride]
54.8%: M229R
56.6%: M238P
84.6%: UACC62R
45.2%: M229P
52.9%: M249R
61.2%: M238R
52.8%: UACC62P
62.3%: M249P

NC(=O)N1CCC(CC(=O)N2CCC([C@H]3c4ncc(Br)cc4CCc4cc(Cl)cc(Br)c43)CC2)CC1 [Lonafarnib]
< 0%: M229P | M229R | M238P | M238R | M249P | M249R | UACC62P | UACC62R

COc1ccc(-c2oc3c(CC=C(C)C)c(O)cc(O)c3c(=O)c2O)cc1 [Icaritin]
< 0%: M229P | M229R | M238P | M238R | M249P | M249R | UACC62P | UACC62R

Oc1ccc(C2CCN(c3ccnc4ccccc34)CC2)cc1O
< 0%: M229P | M229R | M238P | M238R | M249P | M249R | UACC62P | UACC62R

CN(C)Cc1cccc(N=C(c2ccccc2)c2c(O)[nH]c3cc(C(=O)N(C)C)ccc23)c1
2.92%: UACC62R
< 0%: M229P | M229R | M238P | M238R | M249P | M249R | UACC62P

From the supplement of paper PMC9015667
